This is an account of results in patent CN115536746A.

For assay [1], the target named is T1, cCRTAM-His (猴源CRTAM蛋白胞外区 + His标签) (猴源 (食蟹猴, cynomolgus monkey)).
T1 sequence: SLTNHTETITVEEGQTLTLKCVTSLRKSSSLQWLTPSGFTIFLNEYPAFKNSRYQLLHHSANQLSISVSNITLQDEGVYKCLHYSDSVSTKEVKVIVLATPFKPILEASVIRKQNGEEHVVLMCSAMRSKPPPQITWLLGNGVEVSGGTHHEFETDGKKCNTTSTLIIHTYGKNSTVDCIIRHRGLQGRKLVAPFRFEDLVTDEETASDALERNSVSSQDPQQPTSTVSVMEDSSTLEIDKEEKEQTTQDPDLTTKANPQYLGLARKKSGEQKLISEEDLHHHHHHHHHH
Put plainly: ELISA, cCRTAM-His coated at 2 μg/mL. For orientation: An ELISA detects its analyte on a solid surface through an enzyme-linked reagent.

The target of assay [2] is T2, hCRTAM蛋白 (screening ELISA, tag not stated) (human) (UniProt O95727).
T2 sequence (looked up): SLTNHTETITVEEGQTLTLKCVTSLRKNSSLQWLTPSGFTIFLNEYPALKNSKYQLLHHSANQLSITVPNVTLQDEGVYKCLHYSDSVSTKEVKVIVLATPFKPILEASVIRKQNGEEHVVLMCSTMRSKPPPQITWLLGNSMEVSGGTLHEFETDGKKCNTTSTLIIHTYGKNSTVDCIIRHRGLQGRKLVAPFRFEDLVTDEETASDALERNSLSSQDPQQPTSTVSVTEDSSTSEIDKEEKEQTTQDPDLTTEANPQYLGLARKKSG
Put plainly: ELISA, hybridoma subclone supernatant on hCRTAM protein.

These are yes or no findings as the source states them, for the method shown. Some binding calls cover weakened binding; strength is not graded here. Tags and fused reporters may be left off the sequences shown.

B1: HuC94-31 (antibody, V domains shown)
VH: EVQLLESGGGLVQPGGSLRLSCAASGFTFSTSAMSWVRQAPGKGLEWVATISSGGDYTYYSDNVKGRFTISRDNSKSTLYLQMNSLRAEDTAVYYCTLGYDEADYWGQGSLLTVSS
VL: DIQMTQSPSSLSASVGDRVTITCRASQDISNYLNWYQQKPGKAPKLLIYYTSRLHSGVPSRFSGSGSGTDYTFTISSLQPEDIATYYCQQGDTFPWTFGGGTKLEIK
For the molecule B1, in assay [1], the binding entry is “binds”.

B2: C110 (鼠源单克隆抗体) (antibody, V domains shown)
VH: QVQLQQSGPELVKPGASVRLSCKASGYTFTNNDINWVKQRPGQGLEWIGWIYPRDGSTQYNEKFRGKATLTVDTSSSTAYMEVHSLTSEDSAVYFCARGLVDYWGQGTTLTVSS
VL: DVVMTQTPLSLPVSLGDHASISCRSSQSLVHSNGNTYLHWYLQKPGQSPKLLIYKVSNRFSGVPDRFSGSGSGTDFTLKISRVEAEDLGVYFCSQSTRVPWTFGGGTKLEIK
In the case of B2, the binding entry in assay [2] is given as “binds”.

B3: C94 (鼠源单克隆抗体) (antibody, V domains shown)
VH: EVMLVESGGGLVKPGGSLKLSCAASGFTFSTSAMSWVRQTPEKRLEWVATISSGGDYTYYSDNVKGRFTISRDNAKSTLYLQMSSLRSEDTAMYYCTLGYDEADYWGQGSTLTVSS
VL: DIQMTQTTSSLSASLGDRVTISCRASQDISNYLNWYQQKPDGTVKLLIYYTSRLHSGVPSRFSGSGSGTDYSLTISNLEEEDIATYFCQQGDTFPWTFGGGTKLEIK
With B3, in assay [2], the binding entry is “binds”.

B4: C124 (鼠源单克隆抗体) (antibody, V domains shown)
VH: QVQLQQSGAELMKPGASVKISCKATGYSFSNYWIEWVRQRPGHGLEWIGEILPGVPTIYYNGKFKDKATFTADASSNTAHMRLTGLTSEDSAVYYCSRDPWFAYWGQGTLVTVSA
VL: DILLTQSPAILSVSPGERVSFSCRASQSIGTSLHWFQQRTNGSPRLLIKYASQSISGLPSRFGGSGSGTDFTLSISSVESEDIADYYCQQSNNWPFTFGGGTKLEIK
Take B4: the binding entry in assay [2] is “binds”.
